Assay results from article PMC10806400.
These are yes or no findings as the source states them, for the method shown. Binding seen in cells or lysates may run through a third protein. Some binding calls cover weakened binding; strength is not graded here. Tags and fused reporters may be left off the sequences shown.

Amino acid sequences for entries named in this document (tags omitted). Residues count along the entry.
UniProt Q15075, residues 1-209: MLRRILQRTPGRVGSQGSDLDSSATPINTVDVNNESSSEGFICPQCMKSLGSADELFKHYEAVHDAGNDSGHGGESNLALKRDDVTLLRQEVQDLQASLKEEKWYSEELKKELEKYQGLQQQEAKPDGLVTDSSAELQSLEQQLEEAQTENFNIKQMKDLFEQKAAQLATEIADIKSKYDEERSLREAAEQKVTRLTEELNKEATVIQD

Target: GST-EEA1^(1–209) (human) (UniProt Q15075)
Experiment: pull-down; GST-EEA1(1-209) bound to glutathione-agarose; lysates of AX2 wild-type and iqgC null cells expressing YFP-Rab5A; 50 mM Tris pH 8, 1 mM EGTA, 40 mM NaCl, 1 mM DTT, 0.5% n-octylpolyoxyethylene; anti-GFP immunoblot; only the target purified

binding: binds
B1: YFP-Rab5A (wild type) (protein, UniProt Q86JP3 1-201)
chain: MNNNNKIFQFKLVLLGEAAVGKSSLVLRFVRGHFLDYQESTIGAAFLAQTVCLNDTTVKFEIWDTAGQERYHTLAPMYYRGAQAAIVVYDIRSEDSFERAIKWVKELQRQGSPNIVIALAGNKLDLAAKRKVETAEAQQYAEENGLLFMETSAKTSQNVNELFVEIAKKLPKTPTTRPGSGRVAIAPIDNGNTGKKNKCCN
